Compound in the test: CCc1cnccc1C(=O)Nc1cc2c(cc1F)NC(=O)CC2
In words: melting temperature shift (DMSO Tm minus MBE1-treated Tm) in cellular thermal proteome profiling; higher = less thermal stabilization by MBE1 (negative = stabilized by MBE1). The conditions noted are these: A375.

Chains of the proteins cited; added tags and fusions are not shown. Lines headed by an entry give the natural chain unless they say otherwise; changes in a name come on top.
UniProt Q04759: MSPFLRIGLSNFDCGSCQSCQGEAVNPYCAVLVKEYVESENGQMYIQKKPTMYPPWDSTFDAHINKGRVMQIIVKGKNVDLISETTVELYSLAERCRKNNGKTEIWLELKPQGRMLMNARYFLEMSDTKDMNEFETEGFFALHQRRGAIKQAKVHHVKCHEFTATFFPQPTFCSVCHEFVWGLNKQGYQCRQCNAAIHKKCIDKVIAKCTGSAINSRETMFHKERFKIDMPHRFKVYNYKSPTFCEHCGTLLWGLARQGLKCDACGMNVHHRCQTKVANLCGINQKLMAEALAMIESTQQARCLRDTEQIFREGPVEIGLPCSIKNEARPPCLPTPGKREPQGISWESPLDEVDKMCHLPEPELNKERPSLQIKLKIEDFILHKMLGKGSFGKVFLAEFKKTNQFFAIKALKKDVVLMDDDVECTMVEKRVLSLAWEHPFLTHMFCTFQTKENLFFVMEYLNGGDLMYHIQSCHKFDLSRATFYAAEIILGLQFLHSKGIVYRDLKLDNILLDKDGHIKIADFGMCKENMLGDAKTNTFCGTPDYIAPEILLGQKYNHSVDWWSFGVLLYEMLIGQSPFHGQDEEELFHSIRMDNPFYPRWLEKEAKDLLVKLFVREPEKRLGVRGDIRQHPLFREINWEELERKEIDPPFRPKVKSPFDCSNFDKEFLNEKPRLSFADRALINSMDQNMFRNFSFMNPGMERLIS
UniProt Q00688: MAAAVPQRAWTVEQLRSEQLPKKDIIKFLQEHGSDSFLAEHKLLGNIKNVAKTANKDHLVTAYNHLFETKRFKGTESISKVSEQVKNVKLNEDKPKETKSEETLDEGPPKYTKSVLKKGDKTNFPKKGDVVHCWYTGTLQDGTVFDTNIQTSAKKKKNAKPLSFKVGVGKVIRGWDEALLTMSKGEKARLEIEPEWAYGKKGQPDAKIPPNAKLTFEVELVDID
UniProt Q01804: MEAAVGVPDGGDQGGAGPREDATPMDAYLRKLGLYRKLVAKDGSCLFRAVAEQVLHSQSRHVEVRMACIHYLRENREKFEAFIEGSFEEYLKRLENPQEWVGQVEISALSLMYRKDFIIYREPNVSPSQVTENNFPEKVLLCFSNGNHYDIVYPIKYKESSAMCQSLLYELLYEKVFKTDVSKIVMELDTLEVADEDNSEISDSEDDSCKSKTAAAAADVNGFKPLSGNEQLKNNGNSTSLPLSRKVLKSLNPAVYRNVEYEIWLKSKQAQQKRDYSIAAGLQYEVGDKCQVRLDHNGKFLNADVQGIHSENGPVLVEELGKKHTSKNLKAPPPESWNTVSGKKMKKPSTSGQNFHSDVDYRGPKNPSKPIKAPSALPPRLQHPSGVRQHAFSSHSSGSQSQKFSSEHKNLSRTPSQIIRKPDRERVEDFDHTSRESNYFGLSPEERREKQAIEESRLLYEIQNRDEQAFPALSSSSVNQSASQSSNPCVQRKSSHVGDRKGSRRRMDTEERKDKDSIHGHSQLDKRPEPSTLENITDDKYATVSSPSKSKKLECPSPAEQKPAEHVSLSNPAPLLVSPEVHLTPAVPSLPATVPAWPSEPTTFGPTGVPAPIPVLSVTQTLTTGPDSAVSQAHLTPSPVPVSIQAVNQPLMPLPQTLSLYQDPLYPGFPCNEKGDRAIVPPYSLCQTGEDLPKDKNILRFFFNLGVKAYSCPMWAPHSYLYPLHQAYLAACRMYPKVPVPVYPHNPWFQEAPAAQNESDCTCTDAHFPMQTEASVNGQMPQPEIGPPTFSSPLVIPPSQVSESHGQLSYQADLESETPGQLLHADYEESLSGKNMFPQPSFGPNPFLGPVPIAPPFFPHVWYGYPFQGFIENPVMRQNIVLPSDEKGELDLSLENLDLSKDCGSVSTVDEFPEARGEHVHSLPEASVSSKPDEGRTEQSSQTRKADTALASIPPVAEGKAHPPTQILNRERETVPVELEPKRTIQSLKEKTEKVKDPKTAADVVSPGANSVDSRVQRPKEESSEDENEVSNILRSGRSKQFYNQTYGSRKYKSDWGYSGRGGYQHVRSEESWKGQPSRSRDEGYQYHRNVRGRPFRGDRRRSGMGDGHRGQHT
UniProt Q05932: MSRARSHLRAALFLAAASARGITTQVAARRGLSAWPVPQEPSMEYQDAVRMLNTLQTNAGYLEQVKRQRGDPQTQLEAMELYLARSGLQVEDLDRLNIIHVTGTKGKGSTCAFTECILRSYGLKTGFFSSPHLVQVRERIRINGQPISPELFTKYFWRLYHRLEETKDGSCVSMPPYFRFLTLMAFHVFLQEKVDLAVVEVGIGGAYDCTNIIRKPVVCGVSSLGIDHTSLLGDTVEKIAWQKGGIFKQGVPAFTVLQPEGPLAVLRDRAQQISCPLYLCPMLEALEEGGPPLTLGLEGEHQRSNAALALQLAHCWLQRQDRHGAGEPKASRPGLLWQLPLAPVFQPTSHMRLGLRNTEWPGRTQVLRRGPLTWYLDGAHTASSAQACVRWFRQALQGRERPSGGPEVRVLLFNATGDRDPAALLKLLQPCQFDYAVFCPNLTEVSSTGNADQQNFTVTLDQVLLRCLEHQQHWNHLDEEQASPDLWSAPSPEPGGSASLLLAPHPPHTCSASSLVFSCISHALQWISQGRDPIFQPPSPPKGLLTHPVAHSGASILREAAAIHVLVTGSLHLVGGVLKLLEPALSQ
UniProt P78310: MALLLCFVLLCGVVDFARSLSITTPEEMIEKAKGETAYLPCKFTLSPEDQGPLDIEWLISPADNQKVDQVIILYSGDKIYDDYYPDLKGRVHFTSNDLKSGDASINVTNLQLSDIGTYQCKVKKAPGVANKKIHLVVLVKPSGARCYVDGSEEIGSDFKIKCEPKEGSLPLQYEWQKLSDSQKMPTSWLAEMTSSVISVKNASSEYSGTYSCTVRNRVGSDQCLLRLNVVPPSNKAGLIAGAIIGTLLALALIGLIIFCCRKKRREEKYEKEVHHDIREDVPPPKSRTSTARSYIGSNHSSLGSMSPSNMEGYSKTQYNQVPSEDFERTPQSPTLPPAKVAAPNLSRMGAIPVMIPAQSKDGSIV
UniProt Q12797: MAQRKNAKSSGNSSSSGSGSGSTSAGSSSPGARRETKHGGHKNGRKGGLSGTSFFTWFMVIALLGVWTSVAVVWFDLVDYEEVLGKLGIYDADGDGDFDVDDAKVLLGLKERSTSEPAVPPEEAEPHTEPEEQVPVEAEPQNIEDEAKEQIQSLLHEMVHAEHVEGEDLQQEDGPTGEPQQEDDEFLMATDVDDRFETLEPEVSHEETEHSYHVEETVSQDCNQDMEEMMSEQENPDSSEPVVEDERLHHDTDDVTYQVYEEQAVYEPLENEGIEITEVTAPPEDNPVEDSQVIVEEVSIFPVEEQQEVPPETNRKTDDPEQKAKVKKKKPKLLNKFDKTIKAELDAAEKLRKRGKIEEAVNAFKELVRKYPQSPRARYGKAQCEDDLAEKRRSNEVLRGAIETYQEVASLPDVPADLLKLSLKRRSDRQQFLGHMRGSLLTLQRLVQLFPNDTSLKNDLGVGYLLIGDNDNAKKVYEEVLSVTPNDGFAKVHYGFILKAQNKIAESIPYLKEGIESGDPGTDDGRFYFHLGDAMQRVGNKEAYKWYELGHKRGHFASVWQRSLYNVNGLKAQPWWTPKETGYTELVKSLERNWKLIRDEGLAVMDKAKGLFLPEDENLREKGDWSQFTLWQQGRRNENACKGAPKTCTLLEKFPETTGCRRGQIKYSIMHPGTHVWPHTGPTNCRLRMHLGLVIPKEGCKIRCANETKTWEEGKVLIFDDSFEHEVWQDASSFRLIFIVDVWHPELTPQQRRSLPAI
UniProt Q02241: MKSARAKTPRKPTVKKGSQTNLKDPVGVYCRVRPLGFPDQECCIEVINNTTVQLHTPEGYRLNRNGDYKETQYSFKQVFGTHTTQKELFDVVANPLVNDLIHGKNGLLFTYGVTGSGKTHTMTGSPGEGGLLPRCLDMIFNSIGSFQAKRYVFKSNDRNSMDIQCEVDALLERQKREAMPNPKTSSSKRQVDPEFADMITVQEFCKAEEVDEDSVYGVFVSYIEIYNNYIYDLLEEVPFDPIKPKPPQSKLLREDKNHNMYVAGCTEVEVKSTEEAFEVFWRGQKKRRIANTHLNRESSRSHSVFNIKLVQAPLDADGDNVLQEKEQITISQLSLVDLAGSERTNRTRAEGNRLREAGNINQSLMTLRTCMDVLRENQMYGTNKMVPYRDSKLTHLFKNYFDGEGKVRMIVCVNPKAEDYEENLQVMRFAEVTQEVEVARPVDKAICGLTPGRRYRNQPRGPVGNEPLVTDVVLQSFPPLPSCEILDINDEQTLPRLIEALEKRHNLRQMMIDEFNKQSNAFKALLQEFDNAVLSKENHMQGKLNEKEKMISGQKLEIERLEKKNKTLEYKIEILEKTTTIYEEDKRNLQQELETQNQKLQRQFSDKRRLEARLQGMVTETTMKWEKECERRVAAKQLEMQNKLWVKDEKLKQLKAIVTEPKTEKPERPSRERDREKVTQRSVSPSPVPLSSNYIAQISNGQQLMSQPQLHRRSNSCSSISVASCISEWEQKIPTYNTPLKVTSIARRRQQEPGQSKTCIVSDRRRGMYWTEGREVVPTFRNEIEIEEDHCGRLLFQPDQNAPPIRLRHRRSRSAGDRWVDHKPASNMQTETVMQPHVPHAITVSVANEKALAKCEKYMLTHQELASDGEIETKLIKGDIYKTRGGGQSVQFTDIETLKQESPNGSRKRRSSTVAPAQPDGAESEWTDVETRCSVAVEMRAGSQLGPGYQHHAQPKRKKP
UniProt Q08AM6: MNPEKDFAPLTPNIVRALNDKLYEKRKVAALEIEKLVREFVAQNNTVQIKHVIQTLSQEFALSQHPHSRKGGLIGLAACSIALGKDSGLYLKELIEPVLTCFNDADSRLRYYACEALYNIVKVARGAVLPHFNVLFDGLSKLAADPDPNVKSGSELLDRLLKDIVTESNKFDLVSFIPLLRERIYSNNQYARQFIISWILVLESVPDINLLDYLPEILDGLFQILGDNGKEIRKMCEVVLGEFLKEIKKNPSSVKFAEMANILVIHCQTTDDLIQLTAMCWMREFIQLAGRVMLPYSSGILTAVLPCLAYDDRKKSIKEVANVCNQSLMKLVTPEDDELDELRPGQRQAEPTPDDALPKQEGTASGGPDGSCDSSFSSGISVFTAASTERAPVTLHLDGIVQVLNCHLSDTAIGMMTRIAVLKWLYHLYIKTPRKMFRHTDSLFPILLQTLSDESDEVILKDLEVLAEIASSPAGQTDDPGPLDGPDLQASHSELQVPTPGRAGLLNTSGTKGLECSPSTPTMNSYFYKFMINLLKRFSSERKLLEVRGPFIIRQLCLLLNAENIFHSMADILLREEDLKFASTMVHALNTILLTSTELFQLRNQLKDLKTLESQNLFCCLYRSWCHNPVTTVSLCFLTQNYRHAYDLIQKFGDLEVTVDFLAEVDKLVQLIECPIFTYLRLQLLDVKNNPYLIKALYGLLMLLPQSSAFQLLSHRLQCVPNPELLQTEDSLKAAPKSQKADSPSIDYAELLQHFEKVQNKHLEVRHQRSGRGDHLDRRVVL
UniProt P99999: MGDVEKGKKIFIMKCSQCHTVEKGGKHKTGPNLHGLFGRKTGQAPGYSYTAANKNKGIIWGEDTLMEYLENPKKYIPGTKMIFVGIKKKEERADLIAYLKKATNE
UniProt Q08AF3: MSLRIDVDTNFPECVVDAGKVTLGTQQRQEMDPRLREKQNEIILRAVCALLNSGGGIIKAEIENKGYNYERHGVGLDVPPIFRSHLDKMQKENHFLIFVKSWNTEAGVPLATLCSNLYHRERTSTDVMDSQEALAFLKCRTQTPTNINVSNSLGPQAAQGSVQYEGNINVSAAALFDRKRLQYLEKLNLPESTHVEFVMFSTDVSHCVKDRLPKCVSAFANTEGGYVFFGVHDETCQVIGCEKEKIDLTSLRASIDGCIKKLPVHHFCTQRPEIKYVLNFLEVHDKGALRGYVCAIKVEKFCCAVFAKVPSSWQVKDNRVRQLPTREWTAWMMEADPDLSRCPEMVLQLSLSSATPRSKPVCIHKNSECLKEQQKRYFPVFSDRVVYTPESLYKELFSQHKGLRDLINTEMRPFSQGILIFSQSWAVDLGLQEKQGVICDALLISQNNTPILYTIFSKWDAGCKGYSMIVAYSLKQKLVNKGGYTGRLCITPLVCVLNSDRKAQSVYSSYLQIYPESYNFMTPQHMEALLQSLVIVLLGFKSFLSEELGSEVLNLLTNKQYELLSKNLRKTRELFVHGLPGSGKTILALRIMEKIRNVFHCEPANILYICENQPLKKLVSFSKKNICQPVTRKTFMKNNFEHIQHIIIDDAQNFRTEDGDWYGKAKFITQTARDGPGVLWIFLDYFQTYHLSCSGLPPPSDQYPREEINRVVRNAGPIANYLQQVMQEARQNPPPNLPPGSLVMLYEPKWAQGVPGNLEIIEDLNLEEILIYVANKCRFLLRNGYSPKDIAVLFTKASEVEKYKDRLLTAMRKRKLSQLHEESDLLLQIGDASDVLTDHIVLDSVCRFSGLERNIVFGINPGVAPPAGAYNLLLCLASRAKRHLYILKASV

The list shows a part of the results. This is a noisy data set.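 Tm was set to 64 °C where no melting was found, and many curves are irregular.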

With PRKCQ (UniProt Q04759), the melting temperature shift reads like this: (MBE1 concentration: 100 nM) -0.427 °C; (MBE1 concentration: 1 uM) -0.14 °C.

With TP53BP1 (UniProt Q12888), the melting temperature shift (MBE1 concentration: 100 nM) is -1.17 °C and the melting temperature shift (MBE1 concentration: 1 uM) is -1.27 °C.

Regarding NOTCH2 (UniProt Q04721), the melting temperature shift reads like this: (MBE1 concentration: 100 nM) -1.14 °C; (MBE1 concentration: 1 uM) -0.416 °C.

In the case of SCAP (UniProt Q12770), the melting temperature shift by setting is: (MBE1 concentration: 100 nM) -0.221 °C; (MBE1 concentration: 1 uM) -0.915 °C.

Consider LACTB (UniProt P83111), for which the melting temperature shift (MBE1 concentration: 100 nM) was -0.335 °C and the melting temperature shift (MBE1 concentration: 1 uM) is 0.557 °C.

Consider MRPS5 (UniProt P82675), for which the melting temperature shift (MBE1 concentration: 100 nM) is 2.18 °C and the melting temperature shift (MBE1 concentration: 1 uM) amounted to 1.12 °C.

On to FKBP3 (UniProt Q00688), for which the melting temperature shift (MBE1 concentration: 100 nM) is -0.772 °C and the melting temperature shift (MBE1 concentration: 1 uM) was -0.215 °C.

As to OTUD4 (UniProt Q01804), the melting temperature shift amounted to 0.482 °C (MBE1 concentration: 100 nM) and 0.0611 °C (MBE1 concentration: 1 uM).

Take IFI35 (UniProt P80217): the melting temperature shift reads like this: (MBE1 concentration: 100 nM) -1.55 °C; (MBE1 concentration: 1 uM) 0.557 °C.

Regarding AHNAK (UniProt Q09666), the melting temperature shift was -1.42 °C (MBE1 concentration: 100 nM) and 0.482 °C (MBE1 concentration: 1 uM).

For FPGS (UniProt Q05932), the melting temperature shift (MBE1 concentration: 100 nM) is -0.48 °C and the melting temperature shift (MBE1 concentration: 1 uM) was -0.634 °C.

In the case of CXADR (UniProt P78310), the melting temperature shift is 0.574 °C (MBE1 concentration: 100 nM) and -0.0317 °C (MBE1 concentration: 1 uM).

As for CENPE (UniProt Q02224), the melting temperature shift is, setting by setting: (MBE1 concentration: 100 nM) 0.336 °C; (MBE1 concentration: 1 uM) 1.89 °C.

For ASPH (UniProt Q12797), the melting temperature shift was -0.604 °C (MBE1 concentration: 100 nM) and -0.577 °C (MBE1 concentration: 1 uM).

For the target OCRL (UniProt Q01968), the melting temperature shift (MBE1 concentration: 100 nM) amounted to 0.843 °C and the melting temperature shift (MBE1 concentration: 1 uM) is 1.03 °C.

Regarding NTHL1 (UniProt P78549), the melting temperature shift (MBE1 concentration: 100 nM) is -1.27 °C and the melting temperature shift (MBE1 concentration: 1 uM) was 0.154 °C.

On to SCRN3 (UniProt Q0VDG4), for which the melting temperature shift by setting is: (MBE1 concentration: 100 nM) -0.511 °C; (MBE1 concentration: 1 uM) 0.177 °C.

With KIF23 (UniProt Q02241), the melting temperature shift is 0.047 °C (MBE1 concentration: 100 nM) and -0.268 °C (MBE1 concentration: 1 uM).

As to VAC14 (UniProt Q08AM6), the melting temperature shift (MBE1 concentration: 100 nM) was -0.181 °C and the melting temperature shift (MBE1 concentration: 1 uM) was -0.617 °C.

On to CYCS (UniProt P99999), for which the melting temperature shift (MBE1 concentration: 100 nM) is -2.63 °C and the melting temperature shift (MBE1 concentration: 1 uM) was -1.82 °C.

On to NFKB2 (UniProt Q00653), for which the melting temperature shift is, setting by setting: (MBE1 concentration: 100 nM) -0.679 °C; (MBE1 concentration: 1 uM) -1.05 °C.

Take TRAP1 (UniProt Q12931): the melting temperature shift (MBE1 concentration: 100 nM) was -0.379 °C and the melting temperature shift (MBE1 concentration: 1 uM) was 0.318 °C.

Turning to SLFN5 (UniProt Q08AF3), the melting temperature shift worked out at 0.104 °C (MBE1 concentration: 100 nM) and 0.378 °C (MBE1 concentration: 1 uM).

The record behind these values is the supplement of paper PMC12595434, “Development of retinoid nuclear receptor pathway antagonists through targeting aldehyde dehydrogenase 1A3” (iScience, 2025).
